Laboratory results: PMC8815872 (PLoS ONE, 2022)

Test: peptide made by a vendor (Fmoc solid-phase peptide synthesis)
Settings: whole synthesis

## SYPIPDT-GHEG-ECG-K-tetramethylrhodamine
  final purity (method not given): greater than 90%
